Assay [1] concerns the target Rbm24a-GFP (full-length, overexpressed from pCS2-rbm24a-GFP mRNA) (zebrafish). The assay can be described thus: co-IP; tagged proteins overexpressed in wild-type embryos from injected synthetic mRNAs (100 pg), about 50 embryos collected around 10 hpf; GFP-Trap magnetic agarose or anti-GFP antibody on protein G Dynabeads; 10 mM Tris-HCl pH 7.5, 150 mM NaCl, 0.5 mM EDTA, 0.5% NP-40; 4 °C overnight; western ….

The target in assay [2] is Rbm24aΔRRM-GFP (disordered C-terminal region of Rbm24a) (zebrafish). The description is as above.

Results are given in words; binding and its absence hold for the method and conditions named. Binding seen in cells or lysates may run through a third protein. Binding calls can cover weak binding; strength is not graded here. Tags and fused reporters may be left off the sequences shown.

B1: Buc-myc (full-length, overexpressed from pCS2-buc-myc mRNA) (protein, UniProt H0WFA5 1-639)
chain: MEGINNNSQPMGVGQPHHPVNHTRPFFYVQPPSQPYFMYQWPMNPYGHYGFPGPALHFGRPYMAPYQFMQYPGYVIPHAPMQPIDYRRINPHYPSVASYDLRVRHHFQNAGMHRETACSEVQTDPSDSVNKLIDKIESLKACELGSDKGPNNVVSSTPDVVQGEKLTRLNEDSNLEVATKECKEDPVTRPTTYSDSAYDAESSQGRLDECVFSDVLPLDSSSVHEEEEEEEKDVNEEDEPQTVADEICSQNEMSASTTSNVFCSGVQSIADPTECHDLEKLGDEQKQDIPSADAAAVIEPLISLSEDFDLPYQILRLPCNKTTTGLSLEREIDPLVYFDSPSTLLPPQNYLSSIGSAYSYSYYPQVTQERQSVLSPSIDELSSRDEMFSTDVEDLEVVPGHVYVGGGRLAEASDMPVRSRKELPSVDKTCSVCQKTCACCGSTLQDEVGMCKMAEHSHPERDEMSDQDCDYDLEAEVRSNCESPRVSKRKCCSRHALPSCGHHCAKHRHRKLLCEGQESCDLREQARVHPKGECCEEYGALAKADKRIQKGALCRPCIEQQWREGVVSDQENWASCGAKPRSWRQVTGPQDQGRTPLRRSTCKSIHQQRPRSEYNDYDETEFTYCQRGRGSMKKRGSRY
As to B1, the binding entry in assay [1] and in assay [2] was “binds” throughout.
